Data from PMC3081804.
Results are given in words; binding and its absence hold for the method and conditions named. Binding seen in cells or lysates may run through a third protein. Some results given as binding are weak or reduced against the parent protein; the word gives no strength. Where a sequence is shown, tags or fusion partners need not be part of it.

Amino acid sequences for entries named in this document (tags omitted). A change or cut given only in a name is not applied to a line headed by its entry. Chains listed by the source or under a name are the forms on record and can include a tag or linker. Residues count along the entry.
LRP5.WT-MycHis (low density lipoprotein receptor-related protein 5, wild type) (O75197, residues 32-1615): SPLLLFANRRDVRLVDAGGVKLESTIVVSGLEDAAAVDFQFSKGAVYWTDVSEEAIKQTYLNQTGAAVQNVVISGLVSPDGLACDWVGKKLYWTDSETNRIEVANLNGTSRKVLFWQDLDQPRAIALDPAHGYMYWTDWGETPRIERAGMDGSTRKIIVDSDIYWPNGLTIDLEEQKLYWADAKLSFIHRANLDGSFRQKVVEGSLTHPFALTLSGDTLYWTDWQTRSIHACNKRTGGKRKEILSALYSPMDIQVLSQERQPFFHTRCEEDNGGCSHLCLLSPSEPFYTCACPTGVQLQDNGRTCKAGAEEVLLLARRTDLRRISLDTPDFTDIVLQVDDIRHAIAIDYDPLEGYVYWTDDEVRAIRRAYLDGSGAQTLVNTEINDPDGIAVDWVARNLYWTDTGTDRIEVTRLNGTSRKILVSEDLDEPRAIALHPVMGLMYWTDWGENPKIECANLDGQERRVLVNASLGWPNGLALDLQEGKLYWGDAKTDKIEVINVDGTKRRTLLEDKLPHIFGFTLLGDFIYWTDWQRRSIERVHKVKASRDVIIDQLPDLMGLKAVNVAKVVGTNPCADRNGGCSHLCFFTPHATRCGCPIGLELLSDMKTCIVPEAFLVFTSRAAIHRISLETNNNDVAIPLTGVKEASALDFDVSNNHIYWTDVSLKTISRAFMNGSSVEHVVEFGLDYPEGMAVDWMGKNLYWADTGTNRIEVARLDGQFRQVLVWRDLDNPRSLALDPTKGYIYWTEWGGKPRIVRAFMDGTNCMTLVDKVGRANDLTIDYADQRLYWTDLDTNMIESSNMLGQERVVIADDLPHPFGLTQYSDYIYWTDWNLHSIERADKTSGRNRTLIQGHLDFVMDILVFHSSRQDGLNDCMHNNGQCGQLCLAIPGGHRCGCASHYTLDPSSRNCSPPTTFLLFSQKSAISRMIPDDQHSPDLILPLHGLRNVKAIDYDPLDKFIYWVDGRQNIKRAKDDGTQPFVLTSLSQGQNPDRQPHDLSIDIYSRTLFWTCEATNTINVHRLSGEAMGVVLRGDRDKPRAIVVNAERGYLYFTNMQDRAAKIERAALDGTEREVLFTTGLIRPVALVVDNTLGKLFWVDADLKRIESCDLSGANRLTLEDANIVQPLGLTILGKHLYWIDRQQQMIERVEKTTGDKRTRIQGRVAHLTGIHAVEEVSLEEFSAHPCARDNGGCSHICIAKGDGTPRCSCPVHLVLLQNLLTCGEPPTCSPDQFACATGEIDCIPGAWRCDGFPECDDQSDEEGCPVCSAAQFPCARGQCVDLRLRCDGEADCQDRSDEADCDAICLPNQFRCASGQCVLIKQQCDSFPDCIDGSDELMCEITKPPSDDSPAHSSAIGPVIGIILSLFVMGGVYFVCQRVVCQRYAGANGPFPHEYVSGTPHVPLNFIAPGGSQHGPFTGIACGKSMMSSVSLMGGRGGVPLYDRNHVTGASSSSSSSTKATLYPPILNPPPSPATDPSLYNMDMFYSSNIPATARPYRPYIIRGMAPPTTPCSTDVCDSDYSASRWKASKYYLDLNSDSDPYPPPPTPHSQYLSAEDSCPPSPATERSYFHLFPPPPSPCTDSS
LRP5.Q89R-MycHis (O75197, form named): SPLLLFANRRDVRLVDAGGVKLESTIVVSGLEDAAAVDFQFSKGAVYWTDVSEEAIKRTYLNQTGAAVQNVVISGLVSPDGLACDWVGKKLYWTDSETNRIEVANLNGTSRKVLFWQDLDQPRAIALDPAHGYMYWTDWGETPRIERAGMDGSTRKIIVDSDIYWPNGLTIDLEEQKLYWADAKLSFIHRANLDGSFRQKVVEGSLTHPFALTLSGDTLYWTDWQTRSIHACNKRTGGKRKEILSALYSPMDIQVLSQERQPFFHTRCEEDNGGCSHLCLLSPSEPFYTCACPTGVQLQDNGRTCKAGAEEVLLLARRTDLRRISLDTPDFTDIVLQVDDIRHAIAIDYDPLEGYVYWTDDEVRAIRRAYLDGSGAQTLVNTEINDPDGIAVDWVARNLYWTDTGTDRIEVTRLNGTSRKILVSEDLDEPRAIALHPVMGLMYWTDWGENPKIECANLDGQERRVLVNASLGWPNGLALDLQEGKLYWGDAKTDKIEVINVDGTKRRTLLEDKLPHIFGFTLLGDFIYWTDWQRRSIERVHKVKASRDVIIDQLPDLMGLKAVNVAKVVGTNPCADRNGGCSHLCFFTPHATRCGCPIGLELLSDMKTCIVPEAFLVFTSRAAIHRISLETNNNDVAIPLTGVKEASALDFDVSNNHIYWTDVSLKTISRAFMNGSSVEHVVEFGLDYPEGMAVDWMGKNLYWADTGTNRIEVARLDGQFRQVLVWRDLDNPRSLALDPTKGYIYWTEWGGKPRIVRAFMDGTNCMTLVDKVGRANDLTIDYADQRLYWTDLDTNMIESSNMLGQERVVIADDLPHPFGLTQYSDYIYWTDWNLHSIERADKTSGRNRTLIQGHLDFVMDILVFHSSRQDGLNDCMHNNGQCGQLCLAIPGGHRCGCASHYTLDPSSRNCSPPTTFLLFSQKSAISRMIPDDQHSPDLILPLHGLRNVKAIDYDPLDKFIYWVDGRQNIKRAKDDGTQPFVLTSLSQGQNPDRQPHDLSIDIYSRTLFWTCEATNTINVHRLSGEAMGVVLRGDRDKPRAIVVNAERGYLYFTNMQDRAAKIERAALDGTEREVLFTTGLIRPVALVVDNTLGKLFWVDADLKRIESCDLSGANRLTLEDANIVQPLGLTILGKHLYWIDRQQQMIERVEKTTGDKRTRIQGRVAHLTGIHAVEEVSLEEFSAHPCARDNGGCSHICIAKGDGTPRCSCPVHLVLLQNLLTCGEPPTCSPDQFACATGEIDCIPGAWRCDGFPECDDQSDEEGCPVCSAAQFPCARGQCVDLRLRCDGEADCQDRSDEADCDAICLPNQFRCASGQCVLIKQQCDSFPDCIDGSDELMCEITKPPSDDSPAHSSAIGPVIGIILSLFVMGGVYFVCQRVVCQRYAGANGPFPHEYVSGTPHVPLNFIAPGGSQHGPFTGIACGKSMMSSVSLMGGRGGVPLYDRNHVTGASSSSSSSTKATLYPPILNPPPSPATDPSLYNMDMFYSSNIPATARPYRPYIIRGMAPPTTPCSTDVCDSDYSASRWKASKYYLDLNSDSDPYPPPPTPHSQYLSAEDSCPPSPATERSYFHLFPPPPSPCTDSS

What was measured:
[1] = target: T1, MESD-FLAG (mesoderm development, molecular chaperone) (mouse (from the vector's name mMESD)) (UniProt Q9ERE7); assay: co-IP; GTM3 cells co-transfected with LRP5-MycHis and MESD-FLAG; lysate in TBS with 1% Triton X-100; IP with anti-FLAG (M2) and Protein G magnetic particles at 4 °C; blot with anti-cMyc
T1 sequence: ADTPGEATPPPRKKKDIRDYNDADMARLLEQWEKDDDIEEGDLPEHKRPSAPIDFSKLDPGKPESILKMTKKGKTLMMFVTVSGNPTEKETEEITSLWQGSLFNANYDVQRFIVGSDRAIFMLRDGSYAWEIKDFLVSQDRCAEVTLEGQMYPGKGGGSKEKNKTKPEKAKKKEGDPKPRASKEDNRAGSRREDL

[2] = target: T1, MESD-FLAG (mesoderm development, molecular chaperone) (mouse (from the vector's name mMESD)); assay: co-IP; HEK293T/17 cells co-transfected with LRP5-MycHis and MESD-FLAG; lysate in TBS with 1% Triton X-100; IP with anti-FLAG (M2) and Protein G magnetic particles at 4 °C; blot with anti-cMyc

| binding [1] | binding [2] | Substance |
| --- | --- | --- |
| binds | binds | LRP5.WT-MycHis (low density lipoprotein receptor-related protein 5, wild type) (from UniProt O75197 32-1615) |
| binds | binds | LRP5.Q89R-MycHis (from UniProt O75197 32-1615) (receptor) |
